This is one part of the list. The main result of the screen is listed elsewhere. These columns were measured beside it and carry no call. Most of these compounds were active or inconclusive in the main read-out, so they are no random draw. Words in brackets tell the shape of the fitted curve; partial curves, single points and poor fits give uncertain potencies.

A short description of this assay: qHTS Assay for Lipid Storage Modulators in Drosophila S3 Cells.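 As to cell number change: cells counted by Cell Tracker Red CMTPX staining in the red channel.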 The conditions noted are these: BODIPY lipid droplet fluorescence, 18-24 h; for cell number change: measured here: cell count max response, cells fed with added oleic acid. The essentials:
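Drosophila S3 cells loaded with oleic acid (400 uM, as added) and compounds at several concentrations; lipid droplets imaged by 488-nm laser-scanning cytometry, 500–530 nm intensity and object ratio to cell channel. Percent activity normalized to 20 uM Triacsin C.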

Where [1] appears, read: measured here: cell number channel AC50, cells fed with added oleic acid.
[2] abbreviates: measured here: lipid fluorescence (Fed channel) AC50, cells fed with added oleic acid.

Consider `COc1ccccc1NC(=O)Cc1noc(CSc2cc(C)c3ccccc3n2)n1`, for which the AC50 by setting is: under setting [1], 0.13 µM [rising, full curve, poor fit]; under setting [2], 0.411 µM [rising, full curve]. Regarding `COC(=O)CN=Cc1c(C)[nH]n(-c2ccccc2)c1=O`, the cell number change came to 14.6%. As to `CN(c1ccccc1)S(=O)(=O)c1cccc(NC(=O)Cc2c(F)cccc2Cl)c1`, the cell number change was determined as 31.6%. Moreover, the AC50 under setting [1] was 23.1 µM [rising, single point]. Moreover, the AC50 under setting [2] is 4.11 µM [rising, single point]. Regarding `CN(C)c1ccnc2sc(C(=O)c3ccc(Br)cc3)c(N)c12`, the cell number change was 147%. For the molecule `COc1ccc(N2CCN(CC(O)COc3ccc(F)cc3)CC2)cc1` (stereo not given), the cell number change is -1.27%. For the same molecule, under setting [2], the AC50 is 0.146 µM [falling, full curve, poor fit]. As to `CCOc1cccc2sc(N(CCN(C)C)C(=O)c3ccc4ccccc4c3)nc12`, the AC50 under setting [2] was 6.51 µM [rising, single point]. Regarding `CCN(CC)C(=O)Cn1c(=O)oc2ccccc21`, the cell number change was -13.5%. Under setting [2], the AC50 is 0.231 µM [falling, full curve, poor fit].

On to `COC(=O)c1ccc(COc2ccc(Cl)cc2)o1`, for which the cell number change is -13.5%. Further, the AC50 under setting [1] is 1.64 µM [rising, partial curve, poor fit]. In addition, the AC50 under setting [2] is 4.11 µM [rising, partial curve, poor fit].

For `Cc1cccc(N2CC(C(=O)O)CC2=O)c1` (stereo not given), the cell number change was -10.8%. Moreover, the AC50 under setting [2] is 0.58 µM [falling, full curve]. `COc1ccc(/C=C/c2c([N+](=O)[O-])c(=O)n(C)c(=O)n2C)cc1O`: the cell number change is -16.1%. In addition, the AC50 under setting [2] was 0.231 µM [falling, full curve, poor fit]. Take `O=c1/c(=C/c2ccco2)sc2nc(-c3ccccc3Br)nn12`: the cell number change worked out at 72.1%. Further, under setting [1], the AC50 was 29.1 µM [rising, partial curve, poor fit]. `CCOC(=O)c1c(C)[nH]c2ccc(O)cc12`: the cell number change was 11.1%.

Consider `Cc1cc(=O)c2c(o1)CC(C)(C)CC2=O`, for which the cell number change was -43.1%. The AC50 under setting [1] was 1.3 µM [falling, full curve]. For the same molecule, the AC50 under setting [2] is 16.4 µM [falling, partial curve].

With `Cc1nn(-c2nnc(C)c(=O)[nH]2)c(C)c1SCC(=O)Nc1ccc(F)cc1`, the cell number change is -154%. In addition, the AC50 under setting [1] is 16.4 µM [falling, partial curve]. The AC50 under setting [2] was 14.6 µM [falling, partial curve]. As for `NC(=O)c1nsc(C(=O)N(CCCN2CCOCC2)C(C(=O)NC2CCCCC2)c2ccc(Cl)cc2)c1N` (stereo not given), the cell number change was -13.5%. With `O=S(=O)(NCc1ccccc1)c1ccc2ccccc2c1`, the cell number change is -22.6%. Moreover, the AC50 under setting [2] is 0.13 µM [falling, full curve, poor fit]. For the molecule `Cc1cc2cc(NC(=O)c3ccco3)ccc2[nH]1`, the cell number change is -13.8%. For `Cc1nn(CC(=O)NCCc2ccc(Cl)cc2)c(C)c1[N+](=O)[O-]`, the cell number change came to 12.2%. The AC50 under setting [2] was 20.6 µM [rising, single point]. Take `Cc1cccc(C(=O)NNC(=O)C2CCN(C(=O)OC(C)(C)C)CC2)c1`: the cell number change came to 11.9%. `COc1ccccc1CNC(=O)C(=O)c1cn(CC(=O)N2CCOCC2)c2ccccc12`: the cell number change was 9.14%. Further, the AC50 under setting [2] was 3.26 µM [rising, full curve].

With `O=C(O)c1ccc(/C=N/NC(=O)c2ccc3c(c2)OCCO3)cc1`, the cell number change was -19.8%.

In the case of `Cc1ccc(C)c(N2C(=O)CS/C2=N\NC(=O)c2ccccc2Cl)c1`, the cell number change is -0.804%. The concentration at half-maximal activity (AC50) under setting [2] is 0.411 µM [rising, single point].

On to `CCCCCCNC(=O)c1ccc(Br)o1`, for which the AC50 under setting [2] is 9.2 µM [rising, partial curve]. `Cc1cccc(NC(c2ccc(C)s2)c2ccc3ccc(C)nc3c2O)n1` (stereo not given): the cell number change is -39.9%. Under setting [1], the AC50 was 23.1 µM [falling, single point]. For the molecule `CC1CCC(C(C)C)C(OCC(O)CNC(C)C)C1` (stereo not given), the cell number change was -36.6%. Further, the AC50 under setting [1] is 4.61 µM [falling, full curve]. For `CCOc1ccc(CCNC(=O)COC(=O)c2cccnc2SC)cc1OCC`, the cell number change was -30.2%. Also, the half-maximal activity concentration (AC50) under setting [1] is 8.2 µM [falling, partial curve]. In addition, the AC50 under setting [2] is 2.31 µM [falling, full curve]. Turning to `CCC1C(=O)N=C(SCC(=O)NC2CCCCC2)NC1=O` (stereo not given), the cell number change is -3.46%. Besides, under setting [1], the AC50 is 1.64 µM [falling, partial curve, poor fit]. Under setting [2], the AC50 is 1.46 µM [falling, partial curve]. On to `N#Cc1cc(-c2ccccc2)nc(Oc2ccc(Cl)cc2)n1`, for which the cell number change stood at 37.9%. The AC50 under setting [1] is 23.1 µM [rising, single point]. As to `N#CCCN(C(=O)COC(=O)c1ccc2c(c1)OCO2)c1ccccc1`, the cell number change amounted to 12.7%. Under setting [2], the AC50 was 0.461 µM [rising, full curve]. As for `CCN(CC)c1nc(Oc2ccc(C(=O)NN)cc2)nc(Oc2ccc(C(=O)NN)cc2)n1`, the concentration at half-maximal activity (AC50) under setting [1] was 0.82 µM [rising, single point]. On to `CN(C)C(=S)NC1CCS(=O)(=O)C1` (stereo not given), for which the cell number change was -32.5%. The AC50 under setting [1] is 18.4 µM [falling, single point]. Take `NC(=O)C1CCCN(C(=O)c2ccc(-c3cccc(Cl)c3Cl)o2)C1` (stereo not given): the cell number change came to 49%. Under setting [1], the AC50 was 13 µM [rising, partial curve, poor fit]. `CCOC(=O)c1sc(Nc2cccc(Cl)c2)nc1C`: the cell number change is -18.8%. Under setting [2], the AC50 was 29.1 µM [falling, single point]. `O=C(N/N=C/c1ccc(Br)cc1)c1ccc(Br)o1`: the cell number change was determined as 21.3%. Besides, the AC50 under setting [2] is 8.2 µM [rising, partial curve, poor fit]. Turning to `COc1ccc(NC(=S)N2CCC(NC(=O)c3ccco3)CC2)cc1`, the AC50 under setting [2] was 29.1 µM [falling, single point]. Turning to `COc1cccc(CNC(=O)c2ccc(NC(=O)CC3SC(N4CCCC4)=NC3=O)cc2)c1` (stereo not given), the cell number change is -26.1%. Besides, under setting [2], the AC50 was 32.6 µM [falling, single point]. For the molecule `COc1ccccc1/C=C1/SC(=O)N(CCC(=O)Nc2ccc(S(=O)(=O)Nc3nccs3)cc2)C1=O`, the cell number change was 22%. Take `O=C(CSc1nnc(C2COc3ccccc3O2)o1)NC1CCCCC1` (stereo not given): the cell number change was -10.5%. Also, under setting [2], the AC50 is 29.1 µM [falling, single point]. Turning to `O=C(CCN1Cc2ccccc2C1)c1ccc2c(c1)OCCO2`, the AC50 under setting [1] is 0.92 µM [rising, single point]. `Nn1c(CSc2ccccn2)nc2ccccc2c1=O`: the cell number change was -2.45%. For the same molecule, the AC50 under setting [2] is 0.103 µM [rising, full curve, poor fit]. As to `CCn1ncc(Br)c1C(=O)Nc1cccc(C(C)=O)c1`, the cell number change is -6.38%. On to `CCOc1ccc(CCNc2nc3ccccc3n3cnnc23)cc1OCC`, for which the cell number change came to 17.8%. Also, under setting [2], the AC50 is 3.66 µM [rising, single point]. On to `Cc1ccc(N(CN2C(=O)C3CC=CCC3C2=O)C(=O)c2ccco2)cc1Cl` (stereo not given), for which the cell number change was found to be 3.59%. In the case of `COc1ccc(S(=O)(=O)N2CCCCCC2)cc1C(=O)Nc1ccc(C(=O)N(C)C)cc1`, the AC50 under setting [1] was 4.61 µM [rising, single point]. As for `Cc1c(NC(=O)COC(=O)c2c3c(nc4ccccc24)CCCC3)c(=O)n(-c2ccccc2)n1C`, the cell number change was 7.3%. The AC50 under setting [2] is 0.58 µM [rising, full curve].

Consider `CC(=O)Nc1sc2c(c1-c1nc3ccccc3s1)CCN(C(C)C)C2`, for which the cell number change was -26.4%. With `Cc1ccc2c(c1)/C(=C/c1ccco1)C(=O)N2`, the cell number change was -39.8%. The half-maximal activity concentration (AC50) under setting [1] was 23.1 µM [falling, single point]. The half-maximal activity concentration (AC50) under setting [2] was 23.1 µM [falling, single point]. Regarding `N#CCCN1CCN(C2=NC(=O)/C(=C\c3cccs3)S2)CC1`, the cell number change is 64.5%. Moreover, under setting [1], the AC50 is 29.1 µM [rising, single point]. Regarding `CC(=O)N1CN(CCCn2ccnc2)Cc2c1sc1c2CCCC1`, the cell number change turned out to be 11.6%. The AC50 under setting [2] is 23.1 µM [rising, single point]. Consider `COCCN(C(=O)COC(=O)c1sccc1C)c1c(N)n(Cc2ccccc2)c(=O)[nH]c1=O`, for which the cell number change stood at 24.3%. Also, under setting [2], the AC50 was 11.6 µM [falling, single point]. Turning to `Cc1cc(=O)[nH]c(SCC(=O)Nc2ccc(Br)cc2)n1`, the cell number change is -0.584%. Besides, under setting [2], the AC50 is 14.6 µM [rising, partial curve]. Turning to `Cc1ccc(N2C(=O)CC3(CC4C=CC3C4)C2=O)cc1` (stereo not given), the cell number change was found to be 13.6%.

Regarding `O=C(O)CCN1CCOCC1`, the cell number change came to 10.1%. Also, under setting [2], the AC50 is 29.1 µM [rising, single point]. With `Cc1cc(N2CCN(C)CC2)nc2ccc(NC(=S)NCCCN3CCN(C)CC3)cc12`, the cell number change is -34.3%. The AC50 under setting [1] was 9.2 µM [falling, partial curve]. Besides, under setting [2], the AC50 is 7.31 µM [falling, partial curve, poor fit]. As to `Nc1nc(CSc2n[nH]c(-c3ccccc3)n2)nc(Nc2ccccc2)n1`, under setting [2], the AC50 is 0.411 µM [falling, partial curve, poor fit]. For the molecule `O=[N+]([O-])c1cc(/C=N/N/C(=N/c2ccccn2)c2ccccn2)ccc1O`, the cell number change is -32.5%. In addition, the AC50 under setting [1] is 29.1 µM [falling, single point]. Under setting [2], the AC50 is 16.4 µM [falling, partial curve].

With `COc1ccccc1OCc1nc2ccccc2s1`, the cell number change came to 24%. For the same molecule, the AC50 under setting [2] is 16.4 µM [rising, partial curve]. On to `N#Cc1cccc(NC(=O)CC2CCCCC2)c1`, for which the cell number change was -30.7%. Further, under setting [1], the concentration at half-maximal activity (AC50) was 2.31 µM [falling, full curve, poor fit]. `CCCCCC1CC(CC(=O)O)C(=O)O1` (stereo not given): the cell number change was -32.5%. Also, under setting [1], the AC50 is 58 µM [falling, partial curve, poor fit]. Further, the AC50 under setting [2] is 23.1 µM [falling, partial curve]. For `Cc1cc(=O)oc2ccc(OC(=O)c3cccc(S(=O)(=O)N4CCOCC4)c3)cc12`, the half-maximal activity concentration (AC50) under setting [1] was 0.092 µM [falling, full curve, poor fit].

`CN(Cc1ccc(-n2cccn2)cc1)C(=O)c1cnn2c1NC(c1ccco1)CC2C(F)(F)F` (stereo not given): the cell number change came to 43.9%. For the same molecule, the AC50 under setting [1] was 6.51 µM [rising, partial curve, poor fit]. Also, under setting [2], the AC50 was 0.13 µM [rising, full curve, poor fit]. For the molecule `COC(=O)C1=C(C(=O)OC)[C@@H]2N(Cc3ccccc3)c3ccccc3[C@@]23C[C@@H](C(=O)OC)N(C(=O)CC(C)C)C3=N1`, the cell number change is -23.3%. For the same molecule, the AC50 under setting [2] is 5.17 µM [falling, full curve].
